Assay [1] deals with complement factor C3b (UniProt P01024). The experiment in a line: SPR, C3b amine-coupled (4030 RU), analyte in solution.
Assay [2] has the same target. Kind of assay: SPR, C3b amine-coupled (4030 RU), 1:1 steady-state affinity fit.

Amino acid sequences for entries named in this document (tags omitted). A change or cut given only in a name is not applied to a line headed by its entry.
UniProt P01024: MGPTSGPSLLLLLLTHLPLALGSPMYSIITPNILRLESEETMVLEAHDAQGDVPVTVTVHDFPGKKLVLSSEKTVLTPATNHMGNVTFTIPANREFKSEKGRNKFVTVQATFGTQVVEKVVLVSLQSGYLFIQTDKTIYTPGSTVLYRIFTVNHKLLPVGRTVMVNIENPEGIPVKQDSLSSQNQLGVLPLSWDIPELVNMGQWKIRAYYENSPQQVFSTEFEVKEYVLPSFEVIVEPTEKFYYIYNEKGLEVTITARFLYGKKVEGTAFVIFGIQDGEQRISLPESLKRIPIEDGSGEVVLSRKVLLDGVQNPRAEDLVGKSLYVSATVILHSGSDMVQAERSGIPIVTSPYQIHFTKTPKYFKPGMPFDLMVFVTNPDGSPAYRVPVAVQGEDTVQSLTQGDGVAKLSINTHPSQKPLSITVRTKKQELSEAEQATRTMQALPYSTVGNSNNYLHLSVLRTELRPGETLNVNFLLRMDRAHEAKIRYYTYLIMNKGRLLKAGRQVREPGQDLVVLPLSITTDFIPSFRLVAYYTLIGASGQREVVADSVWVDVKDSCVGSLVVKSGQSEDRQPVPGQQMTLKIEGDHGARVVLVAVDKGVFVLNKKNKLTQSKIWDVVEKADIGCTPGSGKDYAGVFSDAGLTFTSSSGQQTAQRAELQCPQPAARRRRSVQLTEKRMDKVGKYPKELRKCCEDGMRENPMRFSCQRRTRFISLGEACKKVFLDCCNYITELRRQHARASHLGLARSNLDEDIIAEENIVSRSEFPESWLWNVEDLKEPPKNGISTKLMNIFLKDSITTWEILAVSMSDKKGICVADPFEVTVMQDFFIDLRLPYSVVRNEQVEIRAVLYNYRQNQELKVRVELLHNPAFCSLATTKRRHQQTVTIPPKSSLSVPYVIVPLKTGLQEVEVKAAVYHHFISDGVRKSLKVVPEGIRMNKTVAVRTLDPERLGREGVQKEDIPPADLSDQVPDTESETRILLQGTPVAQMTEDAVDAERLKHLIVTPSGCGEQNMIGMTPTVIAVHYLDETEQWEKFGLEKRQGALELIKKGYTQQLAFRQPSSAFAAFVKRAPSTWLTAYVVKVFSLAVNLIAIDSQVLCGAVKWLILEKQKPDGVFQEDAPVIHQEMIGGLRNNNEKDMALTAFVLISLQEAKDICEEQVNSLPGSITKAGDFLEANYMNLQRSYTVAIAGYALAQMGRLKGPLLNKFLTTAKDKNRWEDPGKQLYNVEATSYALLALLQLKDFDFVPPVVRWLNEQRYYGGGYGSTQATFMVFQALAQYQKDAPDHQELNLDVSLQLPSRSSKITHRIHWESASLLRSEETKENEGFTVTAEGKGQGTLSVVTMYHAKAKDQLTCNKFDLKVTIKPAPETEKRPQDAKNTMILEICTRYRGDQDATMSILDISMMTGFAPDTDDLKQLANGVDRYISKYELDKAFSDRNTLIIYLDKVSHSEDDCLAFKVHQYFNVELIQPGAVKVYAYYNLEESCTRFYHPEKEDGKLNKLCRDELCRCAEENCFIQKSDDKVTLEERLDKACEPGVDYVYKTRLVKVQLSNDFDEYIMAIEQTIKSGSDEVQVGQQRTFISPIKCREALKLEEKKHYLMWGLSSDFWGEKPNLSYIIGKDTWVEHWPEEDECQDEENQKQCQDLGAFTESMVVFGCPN

Results are given in words; binding and its absence hold for the method and conditions named. Some results given as binding are weak or reduced against the parent protein; the word gives no strength. For some assays here: Tags and fused reporters may be left off the sequences shown.

B1: miniFH-Fc (Fc fusion)
chain: EDCNELPPRRNTEILTGSWSDQTYPEGTQAIYKCRPGYRSLGNIIMVCRKGEWVALNPLRKCQKRPCGHPGDTPFGTFTLTGGNVFEYGVKAVYTCNEGYQLLGEINYRECDTDGWTNDIPICEVVKCLPVTAPENGKIVSSAMEPDREYHFGQAVRFVCNSGYKIEGDEEMHCSDDGFWSKEKPKCVEISCKSPDVINGSPISQKIIYKENERFQYKCNMGYEYSERGDAVCTESGWRPLPSCEEAGGGGGGGGGGGGGKCGPPPPIDNGDITSFPLSVYAPASSVEYQCQNLYQLEGNKRITCRNGQWSEPPKCLHPCVISREIMENYNIALRWTAKQKLYSRTGESVEFVCKRGYRLSSRSHTLRTTCWDGKLEYPTCAGPGGGGGPGCPAPELLGGPSVFLFPPKPKDTLMISRTPEVTCVVVDVSHEDPEVKFNWYVDGVEVHNAKTKPREEQYQSTYRVVSVLTVLHQDWLNGKEYKCKVSNKALPAPIEKTISKAKGQPREPQVYTLPPSREEMTKNQVSLTCLVKGFYPSDIAVEWESNGQPENNYKTTPPVLDSDGSFFLYSKLTVDKSRWQQGNVFSCSVMHEALHNHYTQKSLSLSPGGGGGGG
Regarding B1, the binding result with complement factor C3b [1] is reported as “binds”.

B2: miniFH (designed binder)
chain: EDCNELPPRRNTEILTGSWSDQTYPEGTQAIYKCRPGYRSLGNIIMVCRKGEWVALNPLRKCQKRPCGHPGDTPFGTFTLTGGNVFEYGVKAVYTCNEGYQLLGEINYRECDTDGWTNDIPICEVVKCLPVTAPENGKIVSSAMEPDREYHFGQAVRFVCNSGYKIEGDEEMHCSDDGFWSKEKPKCVEISCKSPDVINGSPISQKIIYKENERFQYKCNMGYEYSERGDAVCTESGWRPLPSCEEAGGGGGGGGGGGGGKCGPPPPIDNGDITSFPLSVYAPASSVEYQCQNLYQLEGNKRITCRNGQWSEPPKCLHPCVISREIMENYNIALRWTAKQKLYSRTGESVEFVCKRGYRLSSRSHTLRTTCWDGKLEYPTCAKR
In the case of B2, the binding entry in the assay with complement factor C3b [2] is “binds”.

(Values after US20210355178A1.)
